In PMC8301015:
Results are given in words; binding and its absence hold for the method and conditions named. Binding seen in cells or lysates may run through a third protein. Here binding means that the protein was enriched with, or labelled near, the bait; the list need not be complete. Where a sequence is shown, tags or fusion partners need not be part of it.

By UniProt entry, the sequences of proteins in these tests, tags left out. Where a name states a change or a piece, a line headed by the entry shows the natural chain unless it says otherwise.
UniProt Q9RZ10: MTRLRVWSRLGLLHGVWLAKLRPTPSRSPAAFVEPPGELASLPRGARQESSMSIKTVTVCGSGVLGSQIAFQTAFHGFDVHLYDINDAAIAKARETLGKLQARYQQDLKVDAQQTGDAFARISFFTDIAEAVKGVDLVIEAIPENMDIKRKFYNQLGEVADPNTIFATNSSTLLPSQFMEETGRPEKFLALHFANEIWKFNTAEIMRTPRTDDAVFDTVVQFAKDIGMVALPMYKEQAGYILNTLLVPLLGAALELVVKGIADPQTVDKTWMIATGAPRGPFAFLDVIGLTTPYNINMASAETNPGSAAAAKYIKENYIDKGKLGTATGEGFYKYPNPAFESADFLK
UniProt Q9RRB4: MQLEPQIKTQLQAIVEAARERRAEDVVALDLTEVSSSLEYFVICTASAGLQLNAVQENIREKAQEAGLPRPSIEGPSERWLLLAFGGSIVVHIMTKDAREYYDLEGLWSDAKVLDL

Target: T1, AbxC (atypical BrxC; DR_1832), C-terminal His x 6 tag (Deinococcus radiodurans) (UniProt Q9RTD3)
T1 sequence: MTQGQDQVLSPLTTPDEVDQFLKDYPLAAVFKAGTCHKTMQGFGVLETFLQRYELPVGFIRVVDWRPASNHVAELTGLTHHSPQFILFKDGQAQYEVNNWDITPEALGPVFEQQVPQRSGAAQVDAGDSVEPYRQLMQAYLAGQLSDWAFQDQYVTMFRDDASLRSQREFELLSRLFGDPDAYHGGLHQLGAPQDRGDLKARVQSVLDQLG
Assay: affinity purification with mass spectrometry; AbxC immobilised on CNBr-activated Sepharose 4B; 10 mg D. radiodurans cell lysate, overnight at 4 °C; washed with 100 mM Tris pH 8.0, 0.5 M NaCl; eluted with 10 mM DTT; SDS-PAGE bands, in-gel trypsin, nLC-MS-MS; only the target purified

Row | binding | Substance
1 | binds | 3-hydroxyacyl-CoA dehydrogenase (DR_A0143), endogenous (from UniProt Q9RZ10) (enzyme)
2 | binds | ribosomal silencing factor RsfS (DR_2580), endogenous (from UniProt Q9RRB4)
